Experimental findings from article PMC4066782, “The telomerase inhibitor Gno1p/PINX1 activates the helicase Prp43p during ribosome biogenesis” (Nucleic Acids Research, 2014) are described below.

The target in test [1] is T1, Utp21p-TAP (S. cerevisiae) (UniProt Q06078).
T1 sequence: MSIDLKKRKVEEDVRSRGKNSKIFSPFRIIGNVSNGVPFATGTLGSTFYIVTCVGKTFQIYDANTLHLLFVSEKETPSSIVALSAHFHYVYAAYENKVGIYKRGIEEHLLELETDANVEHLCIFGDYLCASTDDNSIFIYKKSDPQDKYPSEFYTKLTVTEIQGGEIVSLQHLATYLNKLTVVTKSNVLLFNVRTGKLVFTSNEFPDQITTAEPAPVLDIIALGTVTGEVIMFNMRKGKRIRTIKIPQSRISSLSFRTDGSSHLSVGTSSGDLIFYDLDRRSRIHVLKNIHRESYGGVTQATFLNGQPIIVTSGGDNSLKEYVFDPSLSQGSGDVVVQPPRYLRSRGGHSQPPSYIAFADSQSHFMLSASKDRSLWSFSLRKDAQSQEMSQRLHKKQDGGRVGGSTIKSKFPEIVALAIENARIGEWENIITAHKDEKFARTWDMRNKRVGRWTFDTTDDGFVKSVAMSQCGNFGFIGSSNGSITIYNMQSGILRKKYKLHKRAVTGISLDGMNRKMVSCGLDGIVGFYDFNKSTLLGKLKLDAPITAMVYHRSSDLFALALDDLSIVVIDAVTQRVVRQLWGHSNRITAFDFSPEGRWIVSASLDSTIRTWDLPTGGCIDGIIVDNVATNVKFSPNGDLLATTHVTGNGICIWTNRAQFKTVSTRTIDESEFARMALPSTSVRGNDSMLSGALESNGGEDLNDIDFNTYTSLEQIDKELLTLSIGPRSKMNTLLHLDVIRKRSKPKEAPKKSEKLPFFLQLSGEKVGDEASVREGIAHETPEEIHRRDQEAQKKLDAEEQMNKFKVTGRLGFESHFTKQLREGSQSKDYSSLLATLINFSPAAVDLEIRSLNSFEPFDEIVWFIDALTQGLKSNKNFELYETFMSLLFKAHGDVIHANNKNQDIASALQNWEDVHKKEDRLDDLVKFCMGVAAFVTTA
Description: co-IP; IgG sepharose beads precipitate the TAP- or ZZ-tagged protein from total yeast extracts; HA-tagged protein detected by western with anti-HA antibodies.

Test [2] deals with T2, Utp15p-TAP (S. cerevisiae) (UniProt Q04305).
T2 sequence: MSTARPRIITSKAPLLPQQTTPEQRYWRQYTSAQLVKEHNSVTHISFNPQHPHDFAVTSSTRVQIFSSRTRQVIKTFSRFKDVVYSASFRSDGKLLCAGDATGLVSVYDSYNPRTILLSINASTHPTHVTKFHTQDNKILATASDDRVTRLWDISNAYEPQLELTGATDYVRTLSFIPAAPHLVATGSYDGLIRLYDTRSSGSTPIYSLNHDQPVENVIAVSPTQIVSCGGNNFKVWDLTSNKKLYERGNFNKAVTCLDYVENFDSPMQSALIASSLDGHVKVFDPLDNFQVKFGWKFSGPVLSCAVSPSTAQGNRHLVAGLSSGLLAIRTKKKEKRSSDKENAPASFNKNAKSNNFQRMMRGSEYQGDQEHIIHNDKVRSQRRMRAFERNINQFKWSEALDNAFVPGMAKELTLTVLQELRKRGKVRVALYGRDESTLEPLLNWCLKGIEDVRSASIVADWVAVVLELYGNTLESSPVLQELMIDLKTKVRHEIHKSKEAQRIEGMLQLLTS
The description is as above.

No constants are given. Whether binding was seen depends on the method and setting. Binding seen in cells or lysates may run through a third protein. Some binding calls cover weakened binding; strength is not graded here. Sequences can lack the tags named with a protein.

B1: Gno1p-HA (GNO1-HA-TRP1 cassette, made with plasmid pFA6a-3HA-TRP1) (protein, UniProt P53335 1-271)
chain: MGLAATRTKQRFGLDPRNTAWSNDTSRFGHQFLEKFGWKPGMGLGLSPMNSNTSHIKVSIKDDNVGLGAKLKRKDKKDEFDNGECAGLDVFQRILGRLNGKESKISEELDTQRKQKIIDGKWGIHFVKGEVLASTWDPKTHKLRNYSNAKKRKREGDDSEDEDDDDKEDKDSDKKKHKKHKKHKKDKKKDKKDKKEHKKHKKEEKRLKKEKRAEKTKETKKTSKLKSSESASNIPDAVNTRLSVRSKWIKQKRAALMDSKALNEIFMITND
For B1, the binding entry in test [1] and in test [2] was “binds” in each case.
